The values that follow come from patent US9169489.

Numbering of substitutions follows the chain as printed. The exact form of at least one protein or probe is not confirmed. At least one result comes from cells or an extract, where the contact may be indirect. For part of these data: A weaker result is weaker than the reference pair of the same experiment. Where a protein sequence is shown, tags need not be part of it.

For data set [1], the target named is T1, GRP7(R49K) (Arabidopsis thaliana) (UniProt Q03250).
T1 sequence (limits assumed): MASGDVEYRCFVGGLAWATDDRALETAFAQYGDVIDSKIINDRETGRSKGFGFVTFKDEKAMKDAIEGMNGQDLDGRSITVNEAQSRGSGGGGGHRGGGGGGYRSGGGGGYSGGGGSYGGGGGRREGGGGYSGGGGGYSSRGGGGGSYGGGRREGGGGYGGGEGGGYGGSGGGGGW
Nature of the data set: binding assay. The settings on record: RNA-IP qRT-PCR; strongly impaired; protein in cells; protein details: HA.

The target in data set [2] is T2, GRP7 (Arabidopsis thaliana) (UniProt Q03250).
T2 sequence (limits assumed): T1 sequence (limits assumed) with K49R
As to the kind of experiment: binding assay. Conditions: protein in cells.

As to “CUUCGUCUACAUCGUUCUACACAUCUCACUGCUCACUACUCUCACUGUAAUCCCUUAGAUCUUCUUUUCAAAUUUCAAUGGCGUCCGGUGAUGUUGAGUAUCGGUGCUUCGUUGGAGGUCUAGCAUGGGCCACUGAUGACAGAGCUCUUGAGACUGCCUUCGCUCAAUACGGCGACGUUAUUGAUUCCAAGAUCAUUAACGAUCGUGAGACUGGAAGAUCAAGGGGAUUCGGAUUCGUCACCUUCAAGGAUGAGAAAGCCAUGAAGGAUGCGAUUGAGGGAAUGAACGGACAAGAUCUCGAUGGCCGUAGCAUCACUGUUAACGAGGCUCAGUCACGAGGAAGCGGUGGCGGCGGAGGCCACCGUGGAGGUGGUGGCGGUGGAUACCGCAGCGGCGGUGGUGGAGGUUACUCCGGUGGAGGUGGUAGCUACGGAGGUGGCGGCGGUAGACGCGAGGGUGGAGGAGGAUACAGCGGCGGCGGCGGCGGUUACUCCUCAAGAGGUGGUGGUGGCGGAAGCUACGGUGGUGGAAGACGUGAGGGAGGAGGAGGAUACGGUGGUGGUGAAGGAGGAGGUUACGGAGGAAGCGGUGGUGGUGGAGGAUGGUAAUUCCUUUAAUUAGGUUUGGGAUUACCAAUGAAUGUUCUCUCUCUCGCUUGUUAUGCUUCUACUUGGUUUUGUGUGUUCUCUAUUUUGUUCUGGUUCUGCUUUAGAUUUGAUGUAACAGUUCGUGAUUAGGUAUUUUGGUAUCUGGAAACGUAAUGUUAAGUCACUUGUCAUUCUCUAAAUAACAAAUUUCUUCGGAGAUAUUAUCUCUGUUGAUUGAUUCUAUCAUCU [GRP7 mRNA]”, the binding result is on record as “binds more weakly” in data set [1]; “binds” in data set [2] (RNA-IP qRT-PCR, reduced when HopU1 co-expressed, protein details: GFP (C-terminal)); “binds” in data set [2] (UV-crosslink RNA-IP qRT-PCR, protein details: HA (C-terminal)).
